Assay results reported in PMC6277767, “Broad and Region-Specific Impacts of the Synthetic Cannabinoid CP 55,940 in Adolescent and Adult Female Mouse Brains” (Frontiers in Molecular Neuroscience, 2018).

Tested on: CD1 female mouse brain lipidome
Experiment: Brain-region lipid levels (HPLC/MS/MS lipidomics) 2 h after single i.p. 3 mg/kg CP 55,940 vs vehicle
Assay type: in vivo
Experimental: The Bloomington Institutional Animal Care and Use Committee of Indiana University reviewed and approved the animal procedures. Female mice from the CD1 strain were utilized to match our study examining THC’s effects on the brain lipidome ([Leishman et al., 2018]). Mice were given a single i.p. injection of either 3 mg/kg CP or 1:1:18 cremophor:ethanol:saline vehicle (please refer to the section “3 mg/kg CP Is Relevant for Synthetic Cannabinoid Abuse and Has Stronger Effects on the Female Mouse Brain Lipidome During Adolescence” for a justification of dose and use of female mice). Three different age groups were given injections: PND 35 and PND 50 adolescents, and adult mice (PND 113). At least eight mice in each age group received CP and at least eight received vehicle. Matching the THC study time course ([Leishman et al., 2018]), mice were sacrificed via rapid decapitation 2 h after injection. Brains were immediately removed and flash-frozen in liquid nitrogen, and then stored at -80°C until dissections were performed. Brains were dissected on an ice-cold dissection plate into the following regions: STR, HIPP, CER, THAL, CTX, HYP, MID, and STEM. These abbreviations for these brain areas will be used exclusively when discussing the results generated by these specific dissections. Each dissected area was immediately placed in liquid nitrogen and then stored at -80°C until used for lipid extraction.
Tissue extracts were performed as previously described ([Bradshaw et al., 2006]; [Stuart et al., 2013]; [Raboune et al., 2014]; [Leishman et al., 2016a],[b], [2017], [2018]). First, samples were shock frozen in liquid nitrogen, weighed, and transferred to a centrifuge tube. The mass of the largest sample was multiplied by 50 to determine how many milliliters of HPLC-grade methanol (Fisher, Fair Lawn, NJ, United States) to add. Then, samples were spiked with 500 pmol deuterium-labeled NAGly (d8NAGly; Cayman Chemical, Ann Arbor, MI, United States). Samples were placed on ice in darkness for 2 h then individually homogenized and centrifuged at 19,000 × g for 20 min at 20°C. Supernatants were diluted with HPLC water (purified in house) to make a solution of 75% water, 25% supernatant. Lipids were partially purified on C18 solid phase extraction columns (Agilent, Palo Alto, CA, United States). A series of four elutions with 1.5 mL of 60%, 75%, 85%, and 100% methanol were collected ([Stuart et al., 2013]; [Leishman et al., 2016a],[b], [2018]).
As previously described ([Bradshaw et al., 2006]; [Tan et al., 2006]; [Smoum et al., 2010]; [Stuart et al., 2013]; [Tortoriello et al., 2013]; [Raboune et al., 2014]; [Leishman et al., 2016a],[b], [2017], [2018]), samples were analyzed using an Applied Biosystems API 3000 triple quadrupole mass spectrometer with electrospray ionization (Foster City, CA, United States). Using an Agilent XDB-C18 reversed phase analytical column and optimized mobile phase gradients, 20 μL from each elution were chromatographed. Two Shimadzu 10ADvp pumps (Columbia, MD, United States) provided the pressure for gradient elution. Mobile phase A: 20% methanol, 80% water (v/v) and 1 mM ammonium acetate (Sigma, St. Louis, MO, United States). Mobile phase B: 100% methanol, 1 mM ammonium acetate. Every method run began with 0% mobile phase B, reached 100% mobile phase B flowing at 0.2 mL/min, and gradually returned to 0% mobile phase B.
This screening library will be referred to as the lipidome when discussing data from this study. HPLC/MS/MS data were analyzed using Analyst software (Applied Biosystems) ([Bradshaw et al., 2006]; [Tan et al., 2006]; [Stuart et al., 2013]; [Tortoriello et al., 2013]; [Raboune et al., 2014]; [Leishman et al., 2016a],[b], [2017], [2018]). Chromatograms (Supplementary Figure 3) were generated by determining the retention time of analytes from the analytical column with a [M-1] or [M+1] parent peak and a fragmentation peak corresponding to the programmed values. […]

[1] = adult female mice, brainstem, 3mg/kg CP 55,940
[2] = cortex, PND 35 adolescent female mice, 3 mg/kg CP 55,940
[3] = thalamus, PND 35 adolescent female mice, 3 mg/kg CP 55,940

CCCCCCC(C)(C)c1ccc([C@@H]2C[C@H](O)CC[C@H]2CCCO)c(O)c1 [CP 55,940]
BDL: 11-OH-THC level, Mean [1] | 11-nor-9-carboxyTHC level, Mean [1] | Cannabidiol level, Mean [1] | THC level, Mean [1] | 11-OH-THC level, Mean [2] | 11-nor-9-carboxyTHC level, Mean [2] | Cannabidiol level, Mean [2] | THC level, Mean [2] | 11-OH-THC level, Mean [3] | 11-nor-9-carboxyTHC level, Mean [3] | Cannabidiol level, Mean [3] | THC level, Mean [3]
